{"source": "the supplement of paper PMC8728848", "experiment_in_all_cases": "glycan array binding signal (z-score within array); higher = stronger binding", "conditions_in_all_cases": "glycan notation: IUPAC condensed, linker removed", "key": {"[1]": {"molecular_target": "Gal(b1-2)Gal", "outline": "(§1)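 Negative Z-scores can be read as non-binding. The Z-score is calculated within each array and then averaged across arrays of one protein sequence at different concentrations or buffers and across linkers. Arrays, 3228 in all, were curated from the Consortium for Functional Glycomics database and kept only where the protein sequence was available.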"}, "[2]": {"molecular_target": "Gal(b1-3)Gal", "outline": "as §1"}, "[3]": {"molecular_target": "Gal(b1-3)Gal(b1-4)GlcNAc", "outline": "as §1"}, "[4]": {"molecular_target": "Gal(b1-3)GalNAc", "outline": "as §1"}, "[5]": {"molecular_target": "Gal(b1-3)GalNAc(a1-3)[Fuc(a1-2)]Gal(b1-4)Glc", "outline": "as §1"}, "[6]": {"molecular_target": "Gal(b1-3)GalNAc(a1-3)[Fuc(a1-2)]Gal(b1-4)GlcNAc", "outline": "as §1"}, "[7]": {"molecular_target": "Gal(b1-3)GalNAc(b1-3)Gal", "outline": "as §1"}, "[8]": {"molecular_target": "Gal(b1-3)GalNAc(b1-3)Gal(a1-4)Gal(b1-4)Glc", "outline": "as §1"}, "[9]": {"molecular_target": "Gal(b1-3)GalNAc(b1-4)Gal(b1-4)Glc", "outline": "as §1"}, "[10]": {"molecular_target": "Gal(b1-3)GalNAc(b1-4)[Neu5Ac(a2-3)]Gal(b1-4)Glc", "outline": "as §1"}, "[11]": {"molecular_target": "Gal(b1-3)GlcNAc", "outline": "as §1"}, "[12]": {"molecular_target": "Gal(b1-3)GlcNAc(a1-3)Gal(b1-4)GlcNAc", "outline": "as §1"}, "[13]": {"molecular_target": "Gal(b1-3)GlcNAc(a1-6)Gal(b1-4)GlcNAc", "outline": "as §1"}, "[14]": {"molecular_target": "Gal(b1-3)GlcNAc(b1-2)Man", "outline": "as §1"}, "[15]": {"molecular_target": "Gal(b1-3)GlcNAc(b1-2)Man(a1-3)[Gal(b1-3)GlcNAc(b1-2)Man(a1-6)]Man(b1-4)GlcNAc(b1-4)GlcNAc", "outline": "as §1"}, "[16]": {"molecular_target": "Gal(b1-3)GlcNAc(b1-2)Man(a1-3)[Gal(b1-3)GlcNAc(b1-2)Man(a1-6)]Man(b1-4)GlcNAc(b1-4)[Fuc(a1-6)]GlcNAc", "outline": "as §1"}, "[17]": {"molecular_target": "Gal(b1-3)GlcNAc(b1-2)Man(a1-3)[GlcNAc(b1-4)][Gal(b1-3)GlcNAc(b1-2)Man(a1-6)]Man(b1-4)GlcNAc(b1-4)GlcNAc", "outline": "as §1"}, "[18]": {"molecular_target": "Gal(b1-3)GlcNAc(b1-2)[Gal(b1-3)GlcNAc(b1-6)]Man(a1-6)[Gal(b1-3)GlcNAc(b1-2)Man(a1-3)]Man(b1-4)GlcNAc(b1-4)GlcNAc", "outline": "as §1"}, "[19]": {"molecular_target": "Gal(b1-3)GlcNAc(b1-3)Gal(b1-3)GlcNAc", "outline": "as §1"}, "[20]": {"molecular_target": "Gal(b1-3)GlcNAc(b1-3)Gal(b1-4)Glc", "outline": "as §1"}, "[21]": {"molecular_target": "Gal(b1-3)GlcNAc(b1-3)Gal(b1-4)GlcNAc", "outline": "as §1"}, "[22]": {"molecular_target": "Gal(b1-3)GlcNAc(b1-3)Gal(b1-4)GlcNAc(b1-2)Man(a1-3)[Gal(b1-3)GlcNAc(b1-3)Gal(b1-4)GlcNAc(b1-2)Man(a1-6)]Man(b1-4)GlcNAc(b1-4)GlcNAc", "outline": "as §1"}, "[23]": {"molecular_target": "Gal(b1-3)GlcNAc(b1-3)Gal(b1-4)GlcNAc(b1-2)[Gal(b1-3)GlcNAc(b1-3)Gal(b1-4)GlcNAc(b1-6)]Man(a1-6)[Gal(b1-3)GlcNAc(b1-3)Gal(b1-4)GlcNAc(b1-2)Man(a1-3)]Man(b1-4)GlcNAc(b1-4)[Fuc(a1-6)]GlcNAc", "outline": "as §1"}, "[24]": {"molecular_target": "Gal(b1-3)GlcNAc(b1-3)Gal(b1-4)GlcNAc(b1-3)Gal(b1-4)GlcNAc(b1-2)[Gal(b1-3)GlcNAc(b1-3)Gal(b1-4)GlcNAc(b1-3)Gal(b1-4)GlcNAc(b1-6)]Man(a1-6)[Gal(b1-3)GlcNAc(b1-3)Gal(b1-4)GlcNAc(b1-3)Gal(b1-4)GlcNAc(b1-2)Man(a1-3)]Man(b1-4)GlcNAc(b1-4)[Fuc(a1-6)]GlcNAc", "outline": "as §1"}, "[25]": {"molecular_target": "Gal(b1-3)GlcNAc(b1-3)Gal(b1-4)GlcNAc(b1-6)[Gal(b1-3)GlcNAc(b1-3)]Gal(b1-4)Glc", "outline": "as §1"}, "[26]": {"molecular_target": "Gal(b1-3)GlcNAc(b1-3)Gal(b1-4)[Fuc(a1-3)]GlcNAc", "outline": "as §1"}, "[27]": {"molecular_target": "Gal(b1-3)GlcNAc(b1-3)Gal(b1-4)[Fuc(a1-3)]GlcNAc(b1-6)[Gal(b1-3)GlcNAc(b1-3)]Gal(b1-4)Glc", "outline": "as §1"}, "[28]": {"molecular_target": "Gal(b1-3)GlcNAc(b1-3)GalNAc", "outline": "as §1"}, "[29]": {"molecular_target": "Gal(b1-3)GlcNAc(b1-6)Gal(b1-4)GlcNAc", "outline": "as §1"}, "[30]": {"molecular_target": "Gal(b1-3)GlcNAc(b1-6)GalNAc", "outline": "as §1"}, "[31]": {"molecular_target": "Gal(b1-3)GlcNAc(b1-6)[Gal(b1-3)]GalNAc", "outline": "as §1"}, "[32]": {"molecular_target": "Gal(b1-3)GlcNAc6S", "outline": "as §1"}, "[33]": {"molecular_target": "Gal(b1-3)[Fuc(a1-4)]GlcNAc", "outline": "as §1"}, "[34]": {"molecular_target": "Gal(b1-3)[Fuc(a1-4)]GlcNAc(b1-2)Man", "outline": "as §1"}, "[35]": {"molecular_target": "Gal(b1-3)[Fuc(a1-4)]GlcNAc(b1-2)Man(a1-3)[Gal(b1-3)[Fuc(a1-4)]GlcNAc(b1-2)Man(a1-6)]Man(b1-4)GlcNAc(b1-4)[Fuc(a1-6)]GlcNAc", "outline": "as §1"}, "[36]": {"molecular_target": "Gal(b1-3)[Fuc(a1-4)]GlcNAc(b1-3)Gal(b1-3)[Fuc(a1-4)]GlcNAc", "outline": "as §1"}, "[37]": {"molecular_target": "Gal(b1-3)[Fuc(a1-4)]GlcNAc(b1-3)Gal(b1-4)[Fuc(a1-3)]GlcNAc", "outline": "as §1"}, "[38]": {"molecular_target": "Gal(b1-3)[Fuc(a1-4)]GlcNAc(b1-6)GalNAc", "outline": "as §1"}, "[39]": {"molecular_target": "Gal(b1-3)[GlcNAc(b1-6)]GalNAc", "outline": "as §1"}, "[40]": {"molecular_target": "Gal(b1-3)[Neu5Ac(a2-6)]GalNAc", "outline": "as §1"}, "[41]": {"molecular_target": "Gal(b1-3)[Neu5Ac(a2-6)]GlcNAc(b1-4)Gal(b1-4)Glc", "outline": "as §1"}, "[42]": {"molecular_target": "Gal(b1-3)[Neu5Ac(b2-6)]GalNAc", "outline": "as §1"}, "[43]": {"molecular_target": "Gal(b1-4)Gal", "outline": "as §1"}, "[44]": {"molecular_target": "Gal(b1-4)GalNAc(a1-3)[Fuc(a1-2)]Gal(b1-4)GlcNAc", "outline": "as §1"}, "[45]": {"molecular_target": "Gal(b1-4)GalNAc(b1-3)[Fuc(a1-2)]Gal(b1-4)GlcNAc", "outline": "as §1"}}, "note": "This is one part of the list."}
{"binder": "Pwp7 (Candida glabrata) (protein) MGSSHHHHHHSSGLVPRGSHMASKNPVDFPNLCQYPNLDGAVAGFDTEIYNADPSILINFSLWPILQFPKEWHKTIGRAITTQTNFKLPASDTTLFGVSIPTQNILIEFRGYFIPPKSGTYTFALYLTDDGSAMFLGNDAAFPCGNITSWSNPTNDQVSVSDYDPKKKTLTVYMVAGVAYPLRIAYYNREKGGSLTASFVDPDGLTHSDWNGYIWTLPSCDNCKYS", "values": [{"measurement": "glycan array binding signal (z-score)", "setting": "[1]", "result": -0.065}, {"measurement": "glycan array binding signal (z-score)", "setting": "[2]", "result": -0.786}, {"measurement": "glycan array binding signal (z-score)", "setting": "[3]", "result": -0.059}, {"measurement": "glycan array binding signal (z-score)", "setting": "[4]", "result": -0.519}, {"measurement": "glycan array binding signal (z-score)", "setting": "[5]", "result": 0.848}, {"measurement": "glycan array binding signal (z-score)", "setting": "[6]", "result": -0.35}, {"measurement": "glycan array binding signal (z-score)", "setting": "[7]", "result": 0.05}, {"measurement": "glycan array binding signal (z-score)", "setting": "[8]", "result": -0.233}, {"measurement": "glycan array binding signal (z-score)", "setting": "[9]", "result": -0.712}, {"measurement": "glycan array binding signal (z-score)", "setting": "[10]", "result": -0.475}, {"measurement": "glycan array binding signal (z-score)", "setting": "[11]", "result": -0.99}, {"measurement": "glycan array binding signal (z-score)", "setting": "[12]", "result": -0.72}, {"measurement": "glycan array binding signal (z-score)", "setting": "[13]", "result": -1.04}, {"measurement": "glycan array binding signal (z-score)", "setting": "[14]", "result": -1.75}, {"measurement": "glycan array binding signal (z-score)", "setting": "[15]", "result": -0.137}, {"measurement": "glycan array binding signal (z-score)", "setting": "[16]", "result": -0.097}, {"measurement": "glycan array binding signal (z-score)", "setting": "[17]", "result": 0.548}, {"measurement": "glycan array binding signal (z-score)", "setting": "[18]", "result": -0.145}, {"measurement": "glycan array binding signal (z-score)", "setting": "[19]", "result": 0.566}, {"measurement": "glycan array binding signal (z-score)", "setting": "[20]", "result": -0.182}, {"measurement": "glycan array binding signal (z-score)", "setting": "[21]", "result": 0.865}, {"measurement": "glycan array binding signal (z-score)", "setting": "[22]", "result": 0.525}, {"measurement": "glycan array binding signal (z-score)", "setting": "[23]", "result": 1.75}, {"measurement": "glycan array binding signal (z-score)", "setting": "[24]", "result": 1.14}, {"measurement": "glycan array binding signal (z-score)", "setting": "[25]", "result": 0.116}, {"measurement": "glycan array binding signal (z-score)", "setting": "[26]", "result": -0.155}, {"measurement": "glycan array binding signal (z-score)", "setting": "[27]", "result": -0.208}, {"measurement": "glycan array binding signal (z-score)", "setting": "[28]", "result": -0.469}, {"measurement": "glycan array binding signal (z-score)", "setting": "[29]", "result": -1.71}, {"measurement": "glycan array binding signal (z-score)", "setting": "[30]", "result": -0.026}, {"measurement": "glycan array binding signal (z-score)", "setting": "[31]", "result": -0.235}, {"measurement": "glycan array binding signal (z-score)", "setting": "[32]", "result": -0.583}, {"measurement": "glycan array binding signal (z-score)", "setting": "[33]", "result": -0.451}, {"measurement": "glycan array binding signal (z-score)", "setting": "[34]", "result": 0.048}, {"measurement": "glycan array binding signal (z-score)", "setting": "[35]", "result": -0.168}, {"measurement": "glycan array binding signal (z-score)", "setting": "[36]", "result": 0.12}, {"measurement": "glycan array binding signal (z-score)", "setting": "[37]", "result": -0.283}, {"measurement": "glycan array binding signal (z-score)", "setting": "[38]", "result": 1.24}, {"measurement": "glycan array binding signal (z-score)", "setting": "[39]", "result": -0.72}, {"measurement": "glycan array binding signal (z-score)", "setting": "[40]", "result": 0.262}, {"measurement": "glycan array binding signal (z-score)", "setting": "[41]", "result": -0.158}, {"measurement": "glycan array binding signal (z-score)", "setting": "[42]", "result": -0.067}, {"measurement": "glycan array binding signal (z-score)", "setting": "[43]", "result": 0.505}, {"measurement": "glycan array binding signal (z-score)", "setting": "[44]", "result": -0.567}, {"measurement": "glycan array binding signal (z-score)", "setting": "[45]", "result": -0.901}]}
